Experimental data from patent publication US20210038587A1, “METHODS AND COMPOSITIONS FOR TREATING NON-ERK MAPK PATHWAY INHIBITOR-RESISTANT CANCERS” (BIOMED VALLEY DISCOVERIES, INC., priority 2013, published 2021).
“Also recorded” adds a separate entry of the source. At least one structure is not confirmed: it was looked up by name or label, or the drawing left a doubt. Some compounds share one wording; it may come from a single statement.

Experiments:
[1] = test system: BRAF^V600-mutant melanoma; details: phase III, single agent versus dacarbazine; cited from earlier work
A375 cells [2] = assay: Dose escalation study (acquisition of resistance); assay type: cell-based, human; details: progressively increasing concentrations
RKO Parental cells = assay: Western blot of MAPK and effector signaling; assay type: cell-based; details: 4-hour treatment
[3] = test system: RKO MEK1 (Q56P/+) Clone 1; assay: Single agent proliferation assay (CellTiter-Glo, 96 h); assay type: cell-based; details: two independent clones
Protocol: For assessment of drug sensitivity in cell-line models of acquired resistance, drug sensitivity of dose-escalated A375 cells and isogenic RKO cells was assessed in 96-hour proliferation assays. […] For the A375 assays Alamar blue (ThermoFisher) 10% (v/v) was added and incubated for 4 h, and fluorescent product was then detected using a BMG FLUOstar.
RKO MEK1 Q56P Isogenic cells were produced by Horizon Discovery (Cambridge, UK; #HD 106-019) using a recombinant AAV-mediated gene targeting strategy. Briefly, rAAV virus was generated following transfection of the appropriate targeting vector and helper vectors in HEK293T cells, purified using an AAV purification kit (Virapur, San Diego, USA) and titrated using qPCR. Parental homozygous RKO cells (homozygous wild type for MEK1) were then infected with rAAV virus and clones that had integrated the selection cassette were identified by G418 selection and expanded. Correctly targeted clones that were heterozygous for knock-in of the MEK1 Q56P point mutation into a single allele were identified by PCR and sequencing.
Compounds were prepared from DMSO stocks to give the desired final concentrations. The final DMSO concentration was constant at 0.1%. […] CellTiter-Glo® reagent (Promega, Madison, Wis.) was added according to manufacturer's instructions and luminescence detected using the BMG FLUOstar plate reader (BMG Labtech, Ortenberg, Germany).

[4] = test system: SW48 cell lines heterozygous for knock-in of mutant KRAS; assay: Proliferation assay in isogenic SW48 lines with knock-in of mutant KRAS (Alamar blue, 96 h); assay type: cell-based; details: versus control SW48
Protocol: Isogenic SW48 cell lines heterozygous for knock-in of mutant KRAS (De Roock et al 2010, JAMA, 304, 1812-1820) were obtained from Horizon Discovery (Catalogue numbers; HD 103-002, HD 103-006 HD 103-007, HD 103-009, HD 103-010, HD 103-011, HD 103-013). […] Viability was then assessed using Alamar blue.

RKO colorectal cell line = assay: Western blot of nuclear and cytoplasmic fractions; assay type: cell-based; details: versus DMSO
Protocol: For Western blot analysis, A375 cells were seeded onto 10 cm dishes in Dulbecco's Modified Eagle's Medium plus 10% (v/v) FBS. Cells were allowed to adhere overnight prior to the addition of test compound or vehicle. For experiments with RKO cells, these cells were seeded in 6-well plates or 10 cm dishes with McCoy's 5A+10% (v/v) FBS. Cells were then treated at the desired concentration and duration. Cells were harvested by trypsinization, pelleted, and snap frozen. Lysates were prepared with RIPA buffer supplemented with protease and phosphatase inhibitor cocktails (Roche), clarified by centrifugation at 11,000 rpm for 10 minutes, and quantitated by bicinchoninic acid assay. Samples were resolved by SDS-PAGE, blotted onto polyvinylidene difluoride membranes, and probed using antibodies (i.e., pRB [Ser780], cat. no. 9307; CCND1, cat. no. ab6152; BCL-xL, cat. no. 2762; PARP, cat. no. 9542; DUSP6, cat. no. 3058S) directed to the indicated targets.
In resting cells, ERK1/2 localizes to the cytoplasm, and once stimulated pERK1/2 migrates to target organelles, particularly the nucleus where transcriptional targets are activated (Wainstein et al. 2016). In DMSO-treated control cells, pERK1/2 is evident in both nuclear and cytoplasmic fractions, which is likely reflective of MAPK pathway activity due to the presence of BRAF^V600E in this cell line.

A375 cells [5] = details: 72 hour CellTiter-Glo (Greger et al., 2012; King et al., 2013); read-out: Published IC50; cited from earlier work
UACC-62 cells = assay: FACS cell cycle analysis; assay type: cell-based; details: 500 nM or 2000 nM, 24 hours
A375 cells [6] = assay: Western blot analysis of MAPK, cell cycle and apoptosis signaling; assay type: cell-based, human
RKO MEK1 (Q56P/+) cells = assay: Western blot of MAPK and effector signaling; assay type: cell-based
[7] = test system: A375, MIAPaCa-2, HCT116, Colo205, HT-29, and AN3Ca cells; assay: Reverse Phase Protein Analysis (RPPA), all six cell lines; assay type: cell-based; details: 10 μM, 6 hours
Protocol: Control wells were treated with DMSO at 0.1% (v/v) for 6 hours prior to cell lysate generation. Samples were then analyzed using reverse-phase protein microarray technology (Theranostics Health).
Cell lines with common alterations in BRAF and RAS were assayed: BRAF^V600E mutant lines A375, Colo205, and HT29; KRAS^G12C-mutant cell line MIAPACa-2; KRAS^G13D-mutant cell line HCT116; and AN3Ca with atypical HRAS^F82L mutation. Changes in protein levels are shown as a percentage change from dimethyl sulfoxide (DMSO)-treated parental control (FIG. 32A and Table 23).

advanced solid tumors = assay: Phase I study: antitumor response (RECIST v1.1, 18F-FDG-PET); assay type: in vivo, human

SMILES: CN(C)/N=N/c1[nH]cnc1C(N)=O [dacarbazine]
- median progression-free survival (PFS) [1]: 1.6-2.7 months
- response rate [1]: 5-19%

SMILES: CC(=O)Nc1cccc(-n2c(=O)n(C3CC3)c(=O)c3c(Nc4ccc(I)cc4F)n(C)c(=O)c(C)c32)c1 [Trametinib]
- emergence of drug-resistant cell lines (A375 cells [2]): readily obtained
- pRSK1/2 level (RKO Parental cells): reduced level of pRSK1/2
- sensitivity of double-mutant BRAF^V600E::MEK1^Q56P cells relative to parental cells [3]: markedly reduced sensitivity
- sensitivity after knock-in of KRAS mutant alleles [4]: significantly diminishes sensitivity
- pERK1/2 in nuclear and cytoplasmic fractions (RKO colorectal cell line): inhibited phosphorylation of ERK1/2 and RSK
- IC50 (A375 cells [5]): 5 ± 3 nM

SMILES: CCCS(=O)(=O)Nc1ccc(F)c(C(=O)c2c[nH]c3ncc(-c4ccc(Cl)cc4)cc23)c1F [vemurafenib]
- pRSK1/2 level (RKO Parental cells): reduced level of pRSK1/2

SMILES: Cn1cnc2c(F)c(Nc3ccc(Br)cc3Cl)c(C(=O)NOCCO)cc21 [selumetinib]
- sensitivity after knock-in of KRAS mutant alleles [4]: significantly diminishes sensitivity

SMILES: CC(C)Nc1cc(-c2c[nH]c(C(=O)N[C@H](CO)c3cccc(Cl)c3)c2)c(Cl)cn1 [BVD-523]
- cell cycle effect (UACC-62 cells): arrested in the G1 phase
- total protein levels of DUSP6 (A375 cells [6]): attenuated at 4 and 24 hours
- phosphorylation of RSK1/2 (A375 cells [6]; 2 μM): reduced at both 4 and 24 hours
- Phospho-ERK1/2 levels (A375 cells [6]; 4 and 24 hours): increased in a concentration-dependent manner
- apoptotic marker BIM-EL (A375 cells [6]; 24 hours): increased in a dose-dependent manner
- cyclin D-1 and pRB (A375 cells [6]; 24 hours): attenuated at 2 μM
- concentrations required to induce changes in substrate phosphorylation and effector targets (A375 cells [6]; A375 and HCT-116, 4 or 24 hours): low micromolar range
- pRSK1/2 level (RKO Parental cells): reduced level of pRSK1/2
- RSK phosphorylation (RKO MEK1 (Q56P/+) cells; 4-hour treatment): remained effective in inhibiting pRSK1/2
- pRB (RKO MEK1 (Q56P/+) cells; 24 hours, both parental RKO and BRAF^V600E::MEK1^Q56P): reduced
- sensitivity after knock-in of KRAS mutant alleles [4]: unaltered by the majority of alleles; also recorded: retained
- pERK1/2 (ERK1/2-T202, -Y204) [7]: markedly increased pERK1/2
- pRSK levels in nuclear and cytoplasmic fractions (RKO colorectal cell line): lower in the cytoplasmic and nuclear compartments
- complete response (advanced solid tumors; 25 evaluable patients): No patients
- metabolic response (18F-FDG-PET) (advanced solid tumors; in vivo): 5 of 16
